These are yes or no findings as the source states them, for the method shown. In cells and extracts the contact can be indirect. Binding can be weak; no strength is given. Sequences can lack the tags named with a protein.

This passage reports binding results from publication PMC10477102.

The target of assay [1] is T1, Fibroblast growth factor 11 (flag-h.FGF11, from pFlag-CMV2-human FGF11) (human) (UniProt Q92914).
T1 sequence: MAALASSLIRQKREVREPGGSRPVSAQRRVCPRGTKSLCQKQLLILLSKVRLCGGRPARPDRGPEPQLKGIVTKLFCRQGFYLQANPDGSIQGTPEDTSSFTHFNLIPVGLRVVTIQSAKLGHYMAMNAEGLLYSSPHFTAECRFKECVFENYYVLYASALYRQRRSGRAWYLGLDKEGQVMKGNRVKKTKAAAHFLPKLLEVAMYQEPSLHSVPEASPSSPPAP
The assay can be described thus: co-IP; Hep3B cells transfected with FGF11 and/or FXRα1 expression vectors, 24 h; lysed in RIPA buffer; precipitated with anti-FLAG antibody (4 °C, 12 h), protein G-Sepharose; blot with anti-HA.

Assay [2] has as its target HA-tagged full-length farnesoid X receptor alpha 1 (FXRα1). The experiment in a line: co-IP; Hep3B cells transfected, 24 h; lysed in RIPA buffer; precipitated with anti-HA antibody (4 °C, 12 h), protein G-Sepharose; blot with anti-FLAG.

For the molecule “HA-tagged full-length farnesoid X receptor alpha 1 (FXRα1)”, the binding result in assay [1] is listed as “binds”.

B1: Fibroblast growth factor 11 (flag-h.FGF11, from pFlag-CMV2-human FGF11) (protein, UniProt Q92914 1-225)
chain: T1 sequence
B1: the binding result in assay [2] is given as “binds”.
